The assay concerns the target human placental CYP19 (Homo sapiens (Human), UniProt P11511). The assay is described as follows: CYP19 (aromatase) inhibition, human placental microsomes. Format: biochemical. To be noted: Table 1, androstenedione 2.5 μM.

Chains of the proteins cited; added tags and fusions are not shown. Lines headed by an entry give the natural chain unless they say otherwise; changes in a name come on top.
UniProt P11511: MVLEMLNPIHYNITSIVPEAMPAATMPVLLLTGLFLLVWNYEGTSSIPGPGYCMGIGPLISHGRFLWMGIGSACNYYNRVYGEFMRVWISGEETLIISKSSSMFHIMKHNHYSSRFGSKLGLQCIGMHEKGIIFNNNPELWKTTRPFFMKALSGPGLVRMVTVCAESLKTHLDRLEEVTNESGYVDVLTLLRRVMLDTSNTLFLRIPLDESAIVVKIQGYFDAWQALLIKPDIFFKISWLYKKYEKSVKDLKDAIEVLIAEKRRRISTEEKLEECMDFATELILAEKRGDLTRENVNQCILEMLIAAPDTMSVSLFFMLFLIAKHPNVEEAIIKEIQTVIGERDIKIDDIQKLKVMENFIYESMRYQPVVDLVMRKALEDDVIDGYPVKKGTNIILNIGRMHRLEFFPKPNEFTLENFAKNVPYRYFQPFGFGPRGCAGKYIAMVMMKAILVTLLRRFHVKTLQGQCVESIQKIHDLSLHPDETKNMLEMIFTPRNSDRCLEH

One may read the IC50 as the concentration that gives 50% inhibition. A low value points to greater potency.

Consider `c1ccc2cc(-n3ccnc3)ccc2c1` [Compound 23, 1-(2-Naphthyl)-1H-imidazole], for which half-maximal inhibition (IC50) required 2.82 µM.

The values above are taken from patent publication US9271963B2, “Selective inhibitors of human corticosteroid synthases” (UNIVERSITAT DES SAARLANDES, priority 2005, dated 2016).
